Results deposited as PubChem BioAssay AID1259405 (NCATS, 2018)
In all, the deposit lists about 50,000 reagents; below is a random part of them. About 4,000 of them (8%) count as active. 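Mouse siRNA library applied to hamster cells; one well for each siRNA.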 Entries without a mark were called inactive. Reagents against one gene are numbered here.

Aim: 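Mouse-designed siRNAs used to find CHO productivity engineering targets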 (primary screen)
Cell system: Chinese hamster CHO-K1 ovary cells with stable secreted eGFP expression
Reagents: single siRNA against mouse genes, 0.8 pmol siRNA per well (2 µl of 400 nM stock)
Time to read-out: 3 days
Measured: 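Per-well intracellular GFP measured by laser scanning cytometry, plus viability from ATP luminescence, each relative to plate median of non-targeting control wells, in %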
Direction: GFP, % of control: higher = more GFP per well, higher productivity; viability (ATP), % of control: higher = more viable cells (more ATP)
Call rule: 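Called active when intracellular GFP, relative to negative control, is at or above 120%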

Msh5 (GeneID 17687) #1 showed GFP, % of control 48.4; viability (ATP), % of control 69.9. Against Msh5 (GeneID 17687) #2 the deposit lists GFP, % of control 61.4; viability (ATP), % of control 75.8. Msh5 (GeneID 17687) #3 gave GFP, % of control 39.8; viability (ATP), % of control 53.1. Eif4g2 (GeneID 13690) #1 showed GFP, % of control 208 (active); viability (ATP), % of control 147. Against Eif4g2 (GeneID 13690) #2, the values are GFP, % of control 125 (active); viability (ATP), % of control 94.6. Against Eif4g2 (GeneID 13690) #3, the entry reads GFP, % of control 89.5; viability (ATP), % of control 76.1.

With knock-down of Rilp (GeneID 280408) #1, the screen gave GFP, % of control 133 (active); viability (ATP), % of control 92.8. For Rilp (GeneID 280408) #2 the deposit lists GFP, % of control 56.6; viability (ATP), % of control 75.6. Trim30d (GeneID 209387) #1 showed GFP, % of control 113; viability (ATP), % of control 70.7. Depletion of Trim30d (GeneID 209387) #2 gave: GFP, % of control 62.6; viability (ATP), % of control 68.5. For Trim30d (GeneID 209387) #3 the deposit lists GFP, % of control 74.9; viability (ATP), % of control 61.4. Depletion of Mug2 (GeneID 17837) #1 resulted in: GFP, % of control 88; viability (ATP), % of control 98.1.

For Mug2 (GeneID 17837) #2 the deposit lists GFP, % of control 89.1; viability (ATP), % of control 67.2. After knock-down of Mug2 (GeneID 17837) #3 the results were GFP, % of control 78.2; viability (ATP), % of control 95.4. Cldn23 (GeneID 71908) #1 gave GFP, % of control 72.8; viability (ATP), % of control 63.8. After knock-down of Cldn23 (GeneID 71908) #2, the record shows GFP, % of control 100; viability (ATP), % of control 90.2. With knock-down of Cldn23 (GeneID 71908) #3, the screen gave GFP, % of control 76.7; viability (ATP), % of control 84.6. Vamp1 (GeneID 22317) #1 gave GFP, % of control 61.1; viability (ATP), % of control 48.3.

With knock-down of Vamp1 (GeneID 22317) #2 the results were GFP, % of control 94.5; viability (ATP), % of control 85.2. Silencing of Vamp1 (GeneID 22317) #3 resulted in: GFP, % of control 83.1; viability (ATP), % of control 69.6. Knock-down of Bex4 (GeneID 406217) #1 resulted in: GFP, % of control 107; viability (ATP), % of control 74.8. Bex4 (GeneID 406217) #2 gave GFP, % of control 112; viability (ATP), % of control 72.5. Depletion of Bex4 (GeneID 406217) #3 resulted in: GFP, % of control 63.2; viability (ATP), % of control 88.2. Depletion of Gyg1 (GeneID 27357) #1 came out at: GFP, % of control 43.9; viability (ATP), % of control 62.1.

With knock-down of Gyg1 (GeneID 27357) #2, the record shows GFP, % of control 109; viability (ATP), % of control 130. Gyg1 (GeneID 27357) #3 gave GFP, % of control 112; viability (ATP), % of control 120. Zfp467 (GeneID 68910) #1 scored GFP, % of control 62.3; viability (ATP), % of control 87.8. Zfp467 (GeneID 68910) #2 showed GFP, % of control 109; viability (ATP), % of control 89.9. Zfp467 (GeneID 68910) #3 showed GFP, % of control 68.7; viability (ATP), % of control 91.2. For Or51a6 (GeneID 259118) #1, the entry reads GFP, % of control 78.1; viability (ATP), % of control 78.

Depletion of Or51a6 (GeneID 259118) #2 gave: GFP, % of control 87.3; viability (ATP), % of control 70.1. Knock-down of Or51a6 (GeneID 259118) #3 came out at: GFP, % of control 68.1; viability (ATP), % of control 120. Depletion of Dgcr2 (GeneID 13356) #1 came out at: GFP, % of control 69.9; viability (ATP), % of control 98.3. Knock-down of Dgcr2 (GeneID 13356) #2 gave: GFP, % of control 58.6; viability (ATP), % of control 84.4. Dgcr2 (GeneID 13356) #3 scored GFP, % of control 127 (active); viability (ATP), % of control 55.2. Atp6v1h (GeneID 108664) #1 scored GFP, % of control 64.9; viability (ATP), % of control 42.9.

Atp6v1h (GeneID 108664) #2 showed GFP, % of control 87.1; viability (ATP), % of control 79.5. Silencing of Atp6v1h (GeneID 108664) #3 resulted in: GFP, % of control 44; viability (ATP), % of control 38.1. After knock-down of Phf11a (GeneID 219131) #1, the screen gave GFP, % of control 103; viability (ATP), % of control 71.7. Depletion of Phf11a (GeneID 219131) #2 resulted in: GFP, % of control 72.6; viability (ATP), % of control 63.2. For Phf11a (GeneID 219131) #3, the entry reads GFP, % of control 56.4; viability (ATP), % of control 63.5.

A portion of the results above:
Gyg1 (GeneID 27357) #3: GFP, % of control = 112; viability (ATP), % of control = 120
Zfp467 (GeneID 68910) #1: GFP, % of control = 62.3; viability (ATP), % of control = 87.8
Zfp467 (GeneID 68910) #2: GFP, % of control = 109; viability (ATP), % of control = 89.9
Zfp467 (GeneID 68910) #3: GFP, % of control = 68.7; viability (ATP), % of control = 91.2
Or51a6 (GeneID 259118) #1: GFP, % of control = 78.1; viability (ATP), % of control = 78
